Assay [1] deals with IRE1α BiFC construct (pEZY BiFC IRE1a-NV(CV)) (UniProt O75460). Kind of assay: split reporter.
For assay [2], the target named is ATF6 BiFC (Venus) construct (UniProt P18850). The experiment in a line: split reporter.
Assay [3] addresses BiP BiFC construct (pEZY BiFC Grp78-NV(CV)) (UniProt P11021). The experiment in a line: split reporter.
The target of assay [4] is full-length IRE1α-green fluorescent protein (GFP) (UniProt O75460). The experiment in a line: MST.
Assay [5] has as its target endogenous IRE1α (human (endogenous in Flp-In-T-REx 293)) (UniProt O75460). Kind of assay: proximity ligation.

Sequences of proteins named here, by UniProt entry; tags and fusion partners are left off. Residues count along the entry.
UniProt O75460, residues 19-977: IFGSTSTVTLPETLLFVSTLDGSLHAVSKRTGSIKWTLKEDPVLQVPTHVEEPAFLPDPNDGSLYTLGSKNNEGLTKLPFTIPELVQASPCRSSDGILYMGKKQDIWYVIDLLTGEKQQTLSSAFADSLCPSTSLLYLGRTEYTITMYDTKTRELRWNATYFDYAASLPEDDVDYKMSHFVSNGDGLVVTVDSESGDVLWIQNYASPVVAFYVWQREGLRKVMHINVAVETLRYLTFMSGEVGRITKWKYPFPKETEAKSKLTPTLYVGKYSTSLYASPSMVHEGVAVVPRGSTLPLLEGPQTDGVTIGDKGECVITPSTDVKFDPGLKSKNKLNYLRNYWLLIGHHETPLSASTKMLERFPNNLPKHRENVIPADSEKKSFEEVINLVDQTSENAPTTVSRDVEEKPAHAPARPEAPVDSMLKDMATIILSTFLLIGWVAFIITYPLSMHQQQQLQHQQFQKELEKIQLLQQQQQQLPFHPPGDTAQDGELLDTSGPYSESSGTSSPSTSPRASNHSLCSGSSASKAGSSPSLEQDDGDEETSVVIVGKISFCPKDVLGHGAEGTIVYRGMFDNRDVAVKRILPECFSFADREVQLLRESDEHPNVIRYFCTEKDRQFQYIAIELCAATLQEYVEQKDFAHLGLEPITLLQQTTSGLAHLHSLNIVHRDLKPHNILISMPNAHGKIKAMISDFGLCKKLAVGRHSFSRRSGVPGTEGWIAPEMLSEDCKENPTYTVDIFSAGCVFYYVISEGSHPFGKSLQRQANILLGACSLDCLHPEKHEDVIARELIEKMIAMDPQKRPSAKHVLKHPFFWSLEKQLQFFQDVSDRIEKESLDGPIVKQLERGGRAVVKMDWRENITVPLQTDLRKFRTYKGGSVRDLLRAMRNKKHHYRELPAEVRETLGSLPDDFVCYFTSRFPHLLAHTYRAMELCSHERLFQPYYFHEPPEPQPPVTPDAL
UniProt P18850: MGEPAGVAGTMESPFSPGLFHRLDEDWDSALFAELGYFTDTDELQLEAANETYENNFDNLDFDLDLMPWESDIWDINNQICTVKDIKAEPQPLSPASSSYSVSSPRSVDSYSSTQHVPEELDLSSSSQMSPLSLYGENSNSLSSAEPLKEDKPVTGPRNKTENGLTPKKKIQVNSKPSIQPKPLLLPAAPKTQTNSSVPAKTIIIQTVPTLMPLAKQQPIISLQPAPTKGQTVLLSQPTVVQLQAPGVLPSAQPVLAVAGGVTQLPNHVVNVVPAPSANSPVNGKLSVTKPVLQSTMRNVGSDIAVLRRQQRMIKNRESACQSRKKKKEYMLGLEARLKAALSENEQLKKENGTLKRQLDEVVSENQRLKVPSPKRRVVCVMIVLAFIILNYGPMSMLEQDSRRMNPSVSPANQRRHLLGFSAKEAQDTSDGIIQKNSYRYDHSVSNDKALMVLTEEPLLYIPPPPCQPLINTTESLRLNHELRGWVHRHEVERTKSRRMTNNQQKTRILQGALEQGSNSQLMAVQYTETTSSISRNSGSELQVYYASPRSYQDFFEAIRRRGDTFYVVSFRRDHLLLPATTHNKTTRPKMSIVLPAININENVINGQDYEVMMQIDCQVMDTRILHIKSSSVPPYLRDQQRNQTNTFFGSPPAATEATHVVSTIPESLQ
UniProt P11021, residues 19-654: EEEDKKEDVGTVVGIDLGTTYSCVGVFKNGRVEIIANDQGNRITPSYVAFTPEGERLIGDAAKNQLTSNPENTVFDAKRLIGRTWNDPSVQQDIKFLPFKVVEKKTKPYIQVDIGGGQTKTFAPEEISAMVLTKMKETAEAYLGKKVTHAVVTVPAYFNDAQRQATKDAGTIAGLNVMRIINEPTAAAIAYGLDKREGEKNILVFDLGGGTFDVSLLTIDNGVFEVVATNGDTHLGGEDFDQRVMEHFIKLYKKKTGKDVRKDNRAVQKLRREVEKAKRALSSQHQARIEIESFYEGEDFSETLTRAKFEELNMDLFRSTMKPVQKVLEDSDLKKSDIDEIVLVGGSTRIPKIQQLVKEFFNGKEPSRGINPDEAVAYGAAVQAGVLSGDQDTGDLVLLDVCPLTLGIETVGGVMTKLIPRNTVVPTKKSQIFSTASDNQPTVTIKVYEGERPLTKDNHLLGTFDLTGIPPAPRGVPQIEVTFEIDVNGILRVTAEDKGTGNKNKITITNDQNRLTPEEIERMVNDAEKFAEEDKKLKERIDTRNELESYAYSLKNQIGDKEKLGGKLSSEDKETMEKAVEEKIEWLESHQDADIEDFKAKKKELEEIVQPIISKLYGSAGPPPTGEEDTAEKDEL
UniProt Q49AH0, residues 25-187: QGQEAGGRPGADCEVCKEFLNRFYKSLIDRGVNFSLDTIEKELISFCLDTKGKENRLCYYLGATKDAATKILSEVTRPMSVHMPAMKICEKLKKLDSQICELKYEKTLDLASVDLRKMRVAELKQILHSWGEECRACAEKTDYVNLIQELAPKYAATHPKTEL

These are yes or no findings as the source states them, for the method shown. For some assays here: In cells and extracts the contact can be indirect. Some entries that bind do so weakly or less than the wild type.

Regarding “CDNF BiFC construct (pEZY BiFC pre-CDNF-NV(CV)) (from UniProt Q49AH0 25-187)”, the binding result in assay [1], in assay [2] and in assay [3] was “binds” each time.
As to “cerebral dopamine neurotrophic factor (CDNF), recombinant human protein (from UniProt Q49AH0 25-187)”, the binding result in assay [4] is reported as “binds”.
In the case of “CDNF-hemagglutinin (HA) (from UniProt Q49AH0 25-187)”, the binding result in assay [5] is reported as “binds”.

The record behind these values is paper doi:10.1101/2024.12.17.628889.
